These results are taken from PMC10630151.

Sequences of proteins named here, by UniProt entry; tags and fusion partners are left off. Residues count along the entry.
UniProt Q9BXW4, residues 1-126: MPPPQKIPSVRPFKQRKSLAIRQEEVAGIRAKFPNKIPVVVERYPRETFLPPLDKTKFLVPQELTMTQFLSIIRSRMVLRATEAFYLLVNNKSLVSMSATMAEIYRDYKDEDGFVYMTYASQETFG
UniProt P60520: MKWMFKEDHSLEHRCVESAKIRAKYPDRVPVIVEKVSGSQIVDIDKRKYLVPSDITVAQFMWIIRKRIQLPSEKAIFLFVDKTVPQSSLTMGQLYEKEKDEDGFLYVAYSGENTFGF
UniProt O95166: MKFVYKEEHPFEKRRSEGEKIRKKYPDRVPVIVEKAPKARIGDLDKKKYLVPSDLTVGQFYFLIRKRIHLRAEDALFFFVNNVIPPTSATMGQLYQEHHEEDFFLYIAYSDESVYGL

The target of this assay is GST-ARL6IP1 (recombinant, purified from E. coli) (human) (UniProt Q15041). Kind of assay: pull-down; in vitro binding: GST-ARL6IP1 and His-LC3/GABARAP family proteins from E. coli (0.5 ug each), PBST, overnight, 4 C; GST-ARL6IP1 held on glutathione Sepharose 4B; western blot; both purified.

These are yes or no findings as the source states them, for the method shown. A result given as binding can be weak or reduced; the word gives no strength.

Regarding “His-LC3C (recombinant, purified from E. coli) (from UniProt Q9BXW4 1-126)”, the binding result is given as “binds”.

Turning to “His-GABARAPL2 (recombinant, purified from E. coli) (from UniProt P60520 1-117)”, the binding entry is on record as “binds”.

Consider “His-GABARAP (recombinant, purified from E. coli) (from UniProt O95166 1-117)”, for which the binding entry was “binds”.
